Percent effect of library compounds

Data taken from ChEMBL document CHEMBL3988442, “University of Dundee, Small-Polar-MMV Screening Library” (2021).

Values are the deposited “Percent Effect”, in %. The controls that fix the scale are not given in the record; negative values are as filed. Compounds were drawn at random from those tested, without regard to their results. Two or more numbers in one place are separate tests of the same structure; such repeats can differ widely.

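Whole-cell growth test on Mycobacterium tuberculosis, read after 4 days in a medium based on cholesterol and the lipid DPPC; the read-out is not stated. Tested at 50 µM. The record gives no direction; compounds that gave an IC50 in retests scored well above the rest, so higher reads as more growth inhibition. Of about 69,000 compounds tested this way, about 370 (0.54%) reached 50% or more in at least one test.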

- CCCN(CCC)c1ncc(S(=O)(=O)c2ccccc2)c(N)n1 : 2.272%
- CS(=O)(=O)NCc1cnc2n1CCN(Cc1cccnc1)CC2.O=C(O)C(F)(F)F.O=C(O)C(F)(F)F : 15.38%
- CC(C)OCCCNC(=O)CN1CCN(c2nccs2)CC1 : -1.829%
- COC(=O)c1cccn1C1CCN(C(=O)c2cc(F)ccc2C)CC1 : 11.48%
- CCc1noc(CNc2cc3c(cc2Cl)OCCO3)n1 : 16.06%
- Cc1ccc2c(n1)N(CCN(C)C)CCN(C(=O)c1ccoc1)C2.O=C(O)C(F)(F)F.O=C(O)C(F)(F)F : -24.67% and -7.583%
- CCS(=O)(=O)N1CCC2(CC1)c1ncc(-c3cccnc3)n1CCN2C : -2.261%
- CCC1CN(C(=O)c2ccccc2N2CCOCC2)CCN1C(C)C (centres undefined) : -13.38%
- CC(C)c1nc(C2CCCN(c3nccc(C(F)(F)F)n3)C2)no1 (centres undefined) : -9.923%
- Cc1nnc2n1CCN(C(C(=O)NC1CC1)c1ccccc1)C2 (centres undefined) : 17.68%
- NC(=O)[C@H]1CCCN(c2nccc(-c3ccncc3)n2)C1 : -21.42%
- Cc1ccc(S(=O)(=O)CCC(=O)NCc2nnc3n2CCC3)cc1 : -5.799%
- Cn1cc(CN2CCCC3(COCCN(Cc4c[nH]nn4)C3)C2)cn1.O=C(O)C(F)(F)F.O=C(O)C(F)(F)F (centres undefined) : -28.31%
- COC(=O)CNC(=O)CCc1cc(Cl)cs1 : 6.928% and 15.58%
- CCn1ccnc1CN1CCN(CC(O)c2ccco2)CC1 (centres undefined) : 7.689%
- CCOC(=O)c1cnn(-c2cc(Oc3cc(C)ccc3C)ncn2)c1N : -5.969%
- CC(C)c1nnsc1CN1CCc2[nH]nc(-c3ccc(Cl)cc3)c2C1 : -1.012%
- CCNC(=O)[C@@H]1CCCN1[C@@H](C(=O)NC)c1ccccc1OC.Cl : -13.82%
- O=c1cc2c(nn1CN1CCSCC1)CCC2 : -26.35%
- Cc1ccc(CNC(=O)c2cc(CN3CCC(O)CC3)on2)s1 : -1.842%
- [H][C@@]12CCN(C(C)=O)C[C@]1(C(=O)NCc1cnc(C)cn1)CCO2 : -12.35%
- O=S1(=O)CCC(S(=O)(=O)c2cccc(S(=O)(=O)N3CCOCC3)c2)C1 (centres undefined) : -14.74%
- CC(Nc1ncnc2c1CCNC2)c1ccc2c(c1)CCCC2 (centres undefined) : 23.09%
- COc1ccc2c(c1)C(=O)NC1(CC2)CCN(Cc2cccnc2)C1 (centres undefined) : 9.272% and -2.298%
- Cc1nc(NC(=O)N2CCCC(C(C)(C)O)C2)nn1C (centres undefined) : -9.849%
- O=C1Nc2ccccc2CC12CCN(CCO)C2 (centres undefined) : -16.8%
- O=C(O)C(F)(F)F.O=C(O)C(F)(F)F.c1ccc(CN2CCCn3nnc(COc4ccccn4)c3C2)nc1 : 3.264%
- CCc1nc2c(s1)C(N(C)C(=O)c1cc[nH]n1)CCC2 (centres undefined) : 10.82%
- CC(C)c1nn(C)c(N2CCOCC2)c1CNC(C)c1ccco1 (centres undefined) : -7.497%
- Cc1nc(Nc2ncccn2)cc(C2CN(C(=O)c3cccnc3)C2)n1 : 46.72%
- CC(C)c1ccn(C2(C(=O)O)CCN(c3ccncc3F)CC2)n1 : -5.696%
- [H][C@@]12CN(C3CCSCC3)C[C@]1([H])N(CCc1ccc(OC)cc1)C(=O)O2 : -1.258%
- O=C(O)C(F)(F)F.[H][C@]12CCN(C(=O)NCC(C)C)CC[C@@]1([H])S(=O)(=O)N(Cc1cccnc1)C2 : -9.27%
- COCCC(=O)N1CCC2(CCN(Cc3ccc(OC)c(F)c3)C2)C1 (centres undefined) : 2.737%
- O=C(CNC(=O)c1ccc2c(c1)CCC2)NCCNc1ncccn1 : 13.51%
- CC(C)c1noc(-c2ccc(NC(=O)NCC(O)C(C)C)cc2)n1 (centres undefined) : 2.383%
- CNC(=O)C1CN(C)CCN(CCCOc2ccccc2F)C1 (centres undefined) : 7.7%
- Cc1nc(C2CCN(C(=O)COC(C)C)CC2)cc(N2CCOCC2)n1 : -33.99%
- CSCCCn1ccnc1-c1cccc(C#N)c1 : -43.49%
- COc1ccc(OC)c(-c2nc(CN(C)Cc3nncn3C)c(C)o2)c1 : -34.82%
- CC(C)c1nnc(NC(=O)NCc2ccc(CO)c(F)c2)s1 : -15.04%
- Cc1ccc(-c2cc(CNC(=O)N3CCC(N(C)C)CC3)on2)cc1 : -5.861%
- COc1cccc(-n2c(SCC(=O)O)nnc2-c2cn[nH]c2)c1 : -11.93%
- O=C(NCC(O)(c1cccs1)C1CC1)NC1CCCCC1 (centres undefined) : -10.22%
- Cc1nc(CNC(=O)N(Cc2ccccc2)CC(C)(C)O)oc1C : 7.523%
- Cc1nc(C)n(CC2CN(c3nnc(C)c(C)c3C#N)CCO2)n1 (centres undefined) : -13.3%
- CCOc1ccc(C#N)cc1NC(=O)N1CCC(n2cncn2)CC1 : -8.156%
- [H][C@]12CC[C@]([H])(CN(C(=O)c3cccnc3)C1)N(Cc1cc(C)ccc1C)C2 : 0.7491% and -27.35%
- CNc1cc(C)nc(C2CN(Cc3ccc(Cl)cn3)CCO2)c1 (centres undefined) : -2.275%
- COCc1nc(N(C)C)ncc1C(=O)NC(C)C : -14.01%
- Cl.NC(=O)c1ccc(CNC2CC2)cc1 : -35.05%
- CN(C)Cc1cccc(-c2cccnc2C(=O)NCc2cn(C)cn2)c1 : -2.036% and -7.673%
- COc1ccc(CN2Cc3[nH]nc(C(=O)N(C)C)c3C2)cc1 : 4.068%
- CC(CN1CCOCC1)NC(=O)c1cc(Cl)c2c(c1)OCO2 (centres undefined) : -9.676%
- CCn1ncc(C(=O)NCCc2nc(-c3ccc(C)cc3)n[nH]2)c1C : 1.993%
- Cc1nc(CN2C(=O)COC3(CCN(Cc4ccsc4)CC3)C2C)cs1.O=C(O)C(F)(F)F (centres undefined) : -14.28%
- COc1cc(NC(=O)N(C)CC2CC2)ncn1 : 2.504%
- CC(C)C(=O)N1CCc2onc(C(=O)NCCN(C)C)c2C1.O=C(O)C(F)(F)F : 5.379%
- Cc1cc(C)nc(CN(C)c2nc(C3CCCC3)nc3c2cnn3C)c1 : 24.57%
- O=C(NCc1csc2ccc(Cl)cc12)c1cc2n(n1)CCNC2 : -13.91%

Repeated from the top, 3 entries:

compound	Percent Effect
CCCN(CCC)c1ncc(S(=O)(=O)c2ccccc2)c(N)n1	2.272%
CS(=O)(=O)NCc1cnc2n1CCN(Cc1cccnc1)CC2.O=C(O)C(F)(F)F.O=C(O)C(F)(F)F	15.38%
CC(C)OCCCNC(=O)CN1CCN(c2nccs2)CC1	-1.829%